# Assay results reported in PubChem BioAssay AID504444 (National Center for Advancing Translational Sciences (NCATS), 2011).
# The campaign covered roughly 360,000 compounds. About 7,500 (2.1%) were called active. This list was built around the results that the source calls inconclusive (neither active nor inactive); the mix of calls is not that of the screen. The call rests on the fitted dose curve; in most records, active means well fitted inhibition curve with a large enough effect; inconclusive means small, poorly fitted or top-dose-only effect, or effect the other way; inactive means flat fitted curve, though single readings scatter. A potency beside an inconclusive call is a rough fit, not a confirmed value.
# Experiment: Nrf2 qHTS screen for inhibitors; further: nearly all actives have a fitted effect of over 60% in size
# Details: A549 ARE-Fluc reporter, luciferase luminescence, 18-24 h; series mostly up to 46 µM
# Procedure, shortened: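 Concentration-response testing used A549 ARE_Fluc cells at 5000 cells/well. Following an 18-24 h compound incubation, viability was read by fluorescence (Ex 405/Em 525) and luciferase output by luminescence.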
# Potency means the concentration at half of the fitted maximal effect.
row,Structure (SMILES),Potency
1,CCCn1nc(Oc2nc(NC(C)C)nc(N(C)C)n2)ccc1=O,"inconclusive: 29.1 µM [activator, single point]"
2,CCN(CC)S(=O)(=O)c1ccc(C(=O)NCCSc2c(-c3ccc(OC)cc3)[nH]c3ccccc23)cc1,"inconclusive: 4.11 µM [falling, partial curve, poor fit]"
3,CC1CCN(C(=O)CNC(=O)c2ccc(Br)o2)CC1,"inconclusive: 23.1 µM [activator, single point]"
4,O=C(NCc1ccco1)c1ccc(Cn2c(=O)c3sccc3n(Cc3cccc(F)c3)c2=O)cc1,"inconclusive: 29.1 µM [falling, single point]"
5,CNC(=O)C1CCC(Cn2c(=O)c3sccc3n(CC(=O)Nc3cc(F)ccc3F)c2=O)CC1 (stereo unspecified),"inconclusive: 23.1 µM [activator, single point]"
6,CC(=O)Nc1cccc(NC(=O)CSc2cn(CC(=O)N3CCCCCC3)c3ccccc23)c1,inactive
7,O=C(N/N=C1\CCCc2oc(C(=O)O)cc21)c1ccccc1,"inconclusive: 20.6 µM [activator, single point]"
8,CCOC(=O)c1cccc(NC(=O)N2CCC(CN3CCCCCC3)CC2)c1,"inconclusive: 29.1 µM [activator, single point]"
9,O=C(O)c1cc(-c2ccc3c(c2)OCO3)nc2ccccc12,inactive
10,O=c1c2ccccc2nc(SCc2nnc(-c3ccccc3)o2)n1-c1ccccc1,"inconclusive: 16.4 µM [falling, single point]"
11,CCOC(=O)c1cc2c(ccn2C)n1CC(=O)N(Cc1ccccc1)c1ccccc1,"inconclusive: 18.4 µM [falling, single point]"
12,C=CCN1C(=O)/C(=c2\sc3nc(=O)c(Cc4ccc(OC)c(OC)c4)nn3c2=O)c2ccccc21,inactive
13,O=C(Nc1ccc2oc(-c3cccc(Cl)c3Cl)nc2c1)c1cccc(Br)c1,"inconclusive: 4.61 µM [falling, partial curve, poor fit]"
14,O=C(c1cn(CCOc2ccc(Cl)cc2)c2ccccc12)C1CCCCC1,inactive
15,O=C(O)c1cccc(N/N=C/c2cc(Br)cc(Br)c2O)c1,"inconclusive: 18.4 µM [activator, partial curve]"
16,N/C(=N\OC(=O)/C=C/c1ccccc1Cl)c1cccnc1,"inconclusive: 13 µM [activator, partial curve]"
17,COc1ccc(-c2cc(C(F)(F)F)n3nc(C(=O)N4CCCCC4)cc3n2)cc1OC,active: 25.9 µM
18,O=[N+]([O-])c1cc(-c2nc(-c3ccncc3)no2)ccc1NCc1ccccc1,inactive
19,COCCn1c(C)cc(/C=C2/NC(=O)N(c3cccc(Cl)c3)C2=O)c1C,"inconclusive: 18.4 µM [activator, partial curve]"
20,CCc1noc(C)c1C(=O)Nc1nc(-c2ccccc2)c(C(C)=O)s1,"inconclusive: 23.1 µM [falling, partial curve, poor fit]"
21,O=c1[nH]c(N/N=C/c2ccccc2Br)nnc1-c1ccccc1,"inconclusive: 18.4 µM [falling, partial curve]"
22,CCCC(=O)Nc1ccc(Sc2ccc([N+](=O)[O-])cc2)cc1,"inconclusive: 25.9 µM [falling, single point]"
23,Cc1cc(C)cc(Nc2cc(C(=O)NCc3ccccc3)c3ccccc3n2)c1,"inconclusive: 29.1 µM [falling, single point]"

row,Structure (SMILES),Potency
1,CCn1c(CN2CCCCC2)nc2cc(S(=O)(=O)N3CCCCC3)ccc21,inactive
2,CCN(c1ccc(C(=O)CSc2nnc(C3CC3)n2C2CC2)cc1)S(C)(=O)=O,inactive
3,C=CCn1c(=NC(=O)c2ccco2)sc2cc(C(=O)OC)ccc21,inactive
4,NC(=S)NN=C1CCCCCCCCCC1,"inconclusive: 10.3 µM [falling, partial curve, poor fit]"
5,Nc1nc(Nc2ccccc2)nc2ccccc12,"inconclusive: 3.66 µM [activator, full curve]"
6,Cc1ccc(CCS(=O)(=O)c2ccc(C(C)(C)C)cc2)cn1,active: 8.2 µM
7,O=C(NNc1ccc([N+](=O)[O-])cc1)Nc1ccccc1,"inconclusive: 14.6 µM [falling, partial curve, poor fit]"
8,CCOC(=O)c1[nH]c2cc(OC)c(OC)cc2c1N,inactive
9,O=C(NC1CCCC1)c1cccc(Cn2cc([N+](=O)[O-])cn2)c1,inactive
10,O=C(COC(=O)c1ccccc1[N+](=O)[O-])c1ccc2c(c1)OCO2,"inconclusive: 10.3 µM [activator, partial curve]"
11,O=S(=O)(N/N=C1/CC(c2ccccc2)Oc2ccccc21)c1ccc(Br)cc1 (stereo unspecified),active: 8.2 µM
12,Cc1ccc(C(=O)Nc2ccc3c(c2)CCC3)cc1S(=O)(=O)N1CCOCC1,"inconclusive: 1.84 µM [activator, full curve]"
13,COc1cccc(-c2cc(C(F)(F)F)nc(-n3ccc([N+](=O)[O-])n3)n2)c1,"inconclusive: 5.17 µM [falling, partial curve, poor fit]"
14,CCc1ccc(OCCSc2nc(-c3cccc(C)c3)nc3cc(=O)[nH]n23)cc1,"inconclusive: 11.6 µM [activator, partial curve, poor fit]"
15,CCn1c(C)nc([N+](=O)[O-])c1C(=O)O,inactive
16,Cc1ccc(-c2noc(C3CCCN(C(=O)c4ccccc4Br)C3)n2)cc1 (stereo unspecified),"inconclusive: 18.4 µM [falling, single point]"
17,O=C(CCCNS(=O)(=O)c1ccc(Cl)c(Cl)c1)NCCc1ccccn1,inactive
18,COc1cc(C2CC(=O)Oc3cc(OC)c(OC)c(OC)c32)cc(OC)c1OC (stereo unspecified),inactive
19,CC(=O)Nc1ccc(C(=O)CSc2nnc3ccc4ccccc4n23)cc1,inactive
20,O=[N+]([O-])c1cccc(-c2ccc(/C=N/NC(=S)Nc3ccccc3)o2)c1,inactive
21,CC(=O)c1c(O)c2ccccc2n(C2CCCCC2)c1=O,inactive
22,N#CN1CCC(NS(=O)(=O)c2cccc(C(F)(F)F)c2)CC1,inactive
23,COc1cc2cc(C(=O)N/N=C/c3ccc(F)cc3)[nH]c2cc1OC,inactive

# Of the compounds above, these contain two or more sulfur atoms.
row,Structure (SMILES),Potency
2,CCN(CC)S(=O)(=O)c1ccc(C(=O)NCCSc2c(-c3ccc(OC)cc3)[nH]c3ccccc23)cc1,"inconclusive: 4.11 µM [falling, partial curve, poor fit]"
2,CCN(c1ccc(C(=O)CSc2nnc(C3CC3)n2C2CC2)cc1)S(C)(=O)=O,inactive
